No constants are given. Whether binding was seen depends on the method and setting. In cells and extracts the contact can be indirect. Some entries that bind do so weakly or less than the wild type. Blank lines part the entries; values can stand above or below the substance they belong to.
Columns and labels:
[1] = molecular target: FLAG-tagged AR (androgen receptor) (UniProt P10275); test: co-IP; HEK293T cells co-transfected, 48 h; lysis in 50 mM Tris pH 7.4, 150 mM NaCl, 2 mM EDTA, 0.8% NP-40, 0.2% Triton X-100, 3% glycerol; anti-FLAG-agarose beads, 4 °C, 2 h; western blot; in one panel cells treated with 10 µM enzalutamide for 24 h (reduced AR in the KLF5 precipitate)
[2] = molecular target: KLF5 fragment, residues 1-200 (UniProt Q13887); test: as above
[3] = molecular target: FLAG-tagged KLF5 (Krüppel-like factor 5) (UniProt Q13887); test: as above
[4] = molecular target: endogenous KLF5 of C4-2B cells (human (endogenous in C4-2B)) (UniProt Q13887); test: co-IP; endogenous proteins, C4-2B cell lysate; KLF5 antibody (self-made) or AR antibody, overnight at 4 °C, magnetic Dynabeads 2 h; normal IgG as negative control; western blot
[5] = molecular target: endogenous Klf5 of mouse prostate (mouse (endogenous in mouse prostate)) (UniProt Q9Z0Z7); test: co-IP; endogenous proteins, mouse prostate lysate; KLF5 antibody or AR antibody, overnight at 4 °C, magnetic Dynabeads 2 h; western blot
[6] = molecular target: endogenous AR of C4-2B cells (human (endogenous in C4-2B)) (UniProt P10275); test: co-IP; endogenous proteins, C4-2B cell lysate; KLF5 antibody (self-made) or AR antibody, overnight at 4 °C, magnetic Dynabeads 2 h; normal IgG as negative control; western blot
[7] = molecular target: endogenous Ar of mouse prostate (mouse (endogenous in mouse prostate)) (UniProt P19091); test: co-IP; endogenous proteins, mouse prostate lysate; KLF5 antibody or AR antibody, overnight at 4 °C, magnetic Dynabeads 2 h; western blot

Chains of the proteins cited; added tags and fusions are not shown. Lines headed by an entry give the natural chain unless they say otherwise; changes in a name come on top. Residues count along the entry.
UniProt P10275: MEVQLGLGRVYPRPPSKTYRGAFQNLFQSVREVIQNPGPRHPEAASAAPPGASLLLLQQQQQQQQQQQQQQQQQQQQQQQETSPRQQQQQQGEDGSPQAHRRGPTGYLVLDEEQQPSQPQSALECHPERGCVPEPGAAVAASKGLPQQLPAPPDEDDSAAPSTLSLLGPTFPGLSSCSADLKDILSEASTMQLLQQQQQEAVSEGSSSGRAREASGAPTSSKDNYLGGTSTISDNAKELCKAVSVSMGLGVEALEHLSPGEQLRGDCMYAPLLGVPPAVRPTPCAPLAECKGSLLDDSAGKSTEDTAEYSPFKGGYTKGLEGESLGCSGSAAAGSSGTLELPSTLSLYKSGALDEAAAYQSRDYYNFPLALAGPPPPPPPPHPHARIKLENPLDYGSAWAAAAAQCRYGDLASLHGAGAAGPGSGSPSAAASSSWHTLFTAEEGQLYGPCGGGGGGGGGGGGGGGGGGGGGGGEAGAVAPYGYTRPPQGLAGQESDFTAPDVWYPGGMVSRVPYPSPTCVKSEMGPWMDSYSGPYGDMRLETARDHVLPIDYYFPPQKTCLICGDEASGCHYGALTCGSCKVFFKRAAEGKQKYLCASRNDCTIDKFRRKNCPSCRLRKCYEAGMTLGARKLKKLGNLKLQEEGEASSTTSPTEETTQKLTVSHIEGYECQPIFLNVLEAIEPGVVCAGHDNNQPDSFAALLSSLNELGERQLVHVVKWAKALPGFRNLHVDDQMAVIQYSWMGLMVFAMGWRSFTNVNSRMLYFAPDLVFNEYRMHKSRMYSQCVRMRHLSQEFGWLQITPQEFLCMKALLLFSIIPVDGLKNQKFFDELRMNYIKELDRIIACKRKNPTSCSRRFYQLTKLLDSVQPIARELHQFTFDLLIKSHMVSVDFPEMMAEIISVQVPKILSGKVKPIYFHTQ
UniProt Q13887: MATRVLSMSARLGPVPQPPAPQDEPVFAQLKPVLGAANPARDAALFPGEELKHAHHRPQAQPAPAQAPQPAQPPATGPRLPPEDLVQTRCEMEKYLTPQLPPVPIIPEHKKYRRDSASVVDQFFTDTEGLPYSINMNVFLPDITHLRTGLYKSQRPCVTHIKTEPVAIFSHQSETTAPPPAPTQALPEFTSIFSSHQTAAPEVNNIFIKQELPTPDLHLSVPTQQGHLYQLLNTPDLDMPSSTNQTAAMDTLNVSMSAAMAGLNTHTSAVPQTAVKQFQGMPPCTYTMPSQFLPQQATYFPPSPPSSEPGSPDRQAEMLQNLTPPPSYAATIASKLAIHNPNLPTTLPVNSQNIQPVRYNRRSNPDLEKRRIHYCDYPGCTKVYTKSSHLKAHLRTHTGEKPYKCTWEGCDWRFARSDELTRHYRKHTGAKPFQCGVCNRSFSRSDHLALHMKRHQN
KLF5 fragment, residues 1-200: residues 1-200 of Q13887
UniProt Q9Z0Z7: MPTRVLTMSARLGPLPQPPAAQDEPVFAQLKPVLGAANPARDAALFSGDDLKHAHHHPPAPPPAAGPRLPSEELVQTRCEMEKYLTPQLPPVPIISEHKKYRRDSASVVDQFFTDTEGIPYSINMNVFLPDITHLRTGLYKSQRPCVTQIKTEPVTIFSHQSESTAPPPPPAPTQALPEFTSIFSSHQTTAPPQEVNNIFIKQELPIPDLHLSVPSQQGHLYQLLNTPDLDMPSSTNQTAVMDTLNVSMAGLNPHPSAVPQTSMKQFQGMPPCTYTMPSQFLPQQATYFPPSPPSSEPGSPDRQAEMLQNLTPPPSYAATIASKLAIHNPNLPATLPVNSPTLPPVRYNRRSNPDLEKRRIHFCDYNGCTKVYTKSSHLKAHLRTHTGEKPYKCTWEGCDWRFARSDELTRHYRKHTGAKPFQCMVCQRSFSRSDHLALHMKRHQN
UniProt P19091: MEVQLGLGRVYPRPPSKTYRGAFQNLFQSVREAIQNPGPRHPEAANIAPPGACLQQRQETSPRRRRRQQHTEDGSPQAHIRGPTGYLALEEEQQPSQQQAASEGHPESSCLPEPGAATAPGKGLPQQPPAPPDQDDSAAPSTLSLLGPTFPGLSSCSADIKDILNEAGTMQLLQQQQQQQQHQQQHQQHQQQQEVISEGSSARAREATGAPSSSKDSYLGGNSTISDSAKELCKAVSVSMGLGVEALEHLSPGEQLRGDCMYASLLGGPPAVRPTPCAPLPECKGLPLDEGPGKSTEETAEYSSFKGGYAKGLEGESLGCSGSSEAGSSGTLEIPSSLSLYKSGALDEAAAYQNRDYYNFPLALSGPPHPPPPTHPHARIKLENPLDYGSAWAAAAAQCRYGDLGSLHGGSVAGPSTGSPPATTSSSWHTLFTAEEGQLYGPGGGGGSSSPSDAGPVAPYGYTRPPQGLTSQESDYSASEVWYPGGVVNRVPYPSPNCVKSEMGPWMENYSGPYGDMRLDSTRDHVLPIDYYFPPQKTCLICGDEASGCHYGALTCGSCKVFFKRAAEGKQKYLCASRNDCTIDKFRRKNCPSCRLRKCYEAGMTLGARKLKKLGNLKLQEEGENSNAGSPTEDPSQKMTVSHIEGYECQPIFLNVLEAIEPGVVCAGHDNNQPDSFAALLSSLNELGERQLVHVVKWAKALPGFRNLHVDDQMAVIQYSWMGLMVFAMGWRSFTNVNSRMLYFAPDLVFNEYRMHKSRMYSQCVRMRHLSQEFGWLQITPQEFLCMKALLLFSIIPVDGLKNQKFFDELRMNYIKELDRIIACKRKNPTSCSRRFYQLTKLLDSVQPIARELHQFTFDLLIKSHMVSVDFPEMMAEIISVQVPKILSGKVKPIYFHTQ

binding [1]: binds
Substance: HA-tagged KLF5 (Krüppel-like factor 5) (from UniProt Q13887 1-457)

binding [2]: binds
binding [3]: binds
Substance: androgen receptor expressed from pSG5-AR (from UniProt P10275 1-920)

binding [4]: binds
Substance: endogenous AR of C4-2B cells (from UniProt P10275 1-920)

binding [5]: binds
Substance: endogenous Ar of mouse prostate (from UniProt P19091 1-899)

binding [6]: binds
Substance: endogenous KLF5 of C4-2B cells (from UniProt Q13887 1-457)

binding [7]: binds
Substance: endogenous Klf5 of mouse prostate (from UniProt Q9Z0Z7 1-446)
